Test results taken from article PMC12040169 (PLOS Biology, 2025).
Some of the results follow.

Tested on: T1, CTL2-GFP (C. trachomatis L2/434/Bu, GFP-expressing)
T1 construct: L2/434/Bu, GFP-expressing
Parameters: species or system HeLa; Intracellular C. trachomatis growth in HeLa cells, bulk GFP fluorescence relative to DMSO
Conditions: bulk GFP, single well; 28.5 h, 10 µM; inhibitor

Row | Compound | % of control remaining [%]
1 | Cc1nc(NS(=O)(=O)Cc2ccccc2)sc1C(=O)O [CBK045552] | 102.146
2 | Cc1ccc(C2(O)CCN(CCNC(=O)C3CCCC3)CC2)cc1 [CBK282606] | 128.57
3 | CCS(=O)(=O)N1CCc2cc(C(=O)CSc3nnc(-c4ccco4)o3)ccc21 [CBK297126] | 144.891
4 | Clc1cncc(-c2ccccc2)n1 [CBK113371] | 152.043
5 | CS(=O)(=O)Nc1cccc(-c2cnc3[nH]c(=O)n(Cc4cccs4)c3n2)c1 [CBK064708] | 187.72
6 | Nc1ncc(-c2ccccc2)nc1-c1ccc(O)cc1 [CBK064030] | 124.332
7 | CCOc1cc(NC2CCN(C(=O)Cc3cc(C)on3)CC2)ncn1 [CBK304689] | 91.534
8 | Cc1cccc(Cn2cnc(NC(=O)Nc3cccc(Cl)c3C)n2)c1 [CBK266876] | 116.665
9 | Nc1ccc2ccc(-c3cccc(C(F)(F)F)c3)nc2n1 [CBK067629] | 167.113
10 | OC(COCc1ccccc1)CN1CCN(c2ccccc2F)CC1 (centres unmarked) [CBK074851C] | 134.468
11 | COc1ccc(C(=O)Nc2ccccc2-c2nc3ccccc3s2)cc1OC [CBK266376] | 215.655
12 | CCNc1cc(-c2ccc(N3CCOCC3)cc2)ncn1 [CBK090876] | 98.826
13 | Cc1nc(C2CCN(C(=O)c3ccncc3)CC2)c2sccn12 [CBK282235] | 121.191
14 | Nc1cccc(-c2cncc(N(CCO)CCO)n2)c1 [CBK065808] | 205.169
15 | OCCN1CC2(CCN(Cc3c(F)cccc3F)CC2)c2ccccc21 [CBK137010] | 114.176
16 | COC1C(O)=CC(=O)OC1(CCc1ccco1)CCc1ccco1 (centres unmarked) [CBK001858] | 151.763
17 | CC1=C[C@@H](CNC(=O)Nc2ccccc2)[C@H](C(C)C)C[C@H]1CC(=O)N1CCN(C)CC1 [CBK289048] | 121.75
18 | O=S(=O)(O)c1cc(S(=O)(=O)O)c2cc(O)c(S(=O)(=O)O)cc2c1 [CBK278319N] | 103.173
19 | O=C(NC(=S)Nc1cccc(-c2nc3ncccc3o2)c1)c1ccc(-c2cccc([N+](=O)[O-])c2)o1 [CBK267870] | 153.369
20 | Cc1cc2nccc([C@H]3CC[C@H](CNC(=O)C(C)C)CC3)n2n1 [CBK283475] | 117.731
21 | Cc1ccc(NC(=O)CN2C(=O)S/C(=C\c3cc(C)n(-c4cccc(C(=O)O)c4)c3C)C2=O)cc1 [CBK264725] | 100
22 | Cc1ncsc1C(=O)N1CCC(c2cccc(Cc3ccccc3Cl)n2)CC1 [CBK286146] | 101.213
23 | O=C(O)CCC(=O)NNC(=O)c1cccc(O)c1 [CBK262116] | 100
24 | COc1cc2c(cc1OC)CN(C(=O)c1cncnc1)CC2 [CBK122748] | 121.59
25 | CSCCC(=O)NCCc1c[nH]c2ccc(Cl)cc12 [CBK159775] | 178.039

Row | Compound | % of control remaining [%]
26 | Cc1cc(/C=C2/C(=N)N3N=C(Cc4ccccc4)SC3=NC2=O)c(C)n1-c1ccccc1 [CBK264318] | 136.472
27 | O=c1sc(Nc2ccccc2)nc2ccsc12 [CBK287853] | 77.2158
28 | COc1cc(CNc2nc(-c3ccc(C(C)(C)C)cc3)cn3ccnc23)cc(OC)c1OC [CBK066615] | 89.7637
29 | CCc1noc(C)c1C(=O)N1CCN(C2CCCC2O)CC1 (centres unmarked) [CBK304869] | 125.563
30 | c1ccc(CCNc2cc(-c3cccc4ccccc34)ncn2)nc1 [CBK037762] | 123.708
31 | CCNC(=S)N[C@@H]1CC[C@@]2(Cc3ccc(OC)c(OC)c3)CCN(C)[C@H]2C1 [CBK023811] | 112.354
32 | CCC(=O)N[C@H](CC)Cn1ncc2ccccc2c1=O [CBK284303] | 156.552
33 | Cc1cnccc1-c1cn(C)nc1-c1ccc(CNC(=O)c2cccc(N(C)C)c2)cc1 [CBK285633] | 121.702
34 | O=C(Cc1ccccc1)Nc1ncc(Cc2ccccc2)s1 [CBK287322] | 129.945
35 | CSc1cccc(NC(=O)CN(C)S(=O)(=O)c2ccc3ccccc3c2)c1 [CBK266708] | 119.197
36 | CN(C)S(=O)(=O)n1cc(/C=C/c2nc(N)nc(-c3ccccc3O)n2)c2ccccc21 [CBK268386] | 72.2575
37 | O=C(CSc1n[nH]c(=O)[nH]c1=O)N/N=C/c1ccc(O)cc1 [CBK263488] | 117.503
38 | O=C(c1ccc([N+](=O)[O-])cc1)C12CN3CN(CN(C3)C1)C2 [CBK011238] | 100
39 | O=C(Nc1ccccc1)Nc1ccc2c(c1)S(=O)(=O)c1cc(NC(=O)Nc3ccccc3)ccc1-2 [CBK262320] | 64.8384
40 | O=C(NC1Cc2ccccc2C1)c1cccc(-c2ccc(CC3CCCNC3=O)cc2)c1 (centres unmarked) [CBK285579] | 123.464
41 | CC(CNC(=O)C1CCCC1)N1CCc2ccccc2C1 (centres unmarked) [CBK304555] | 72.1835
42 | Cc1[nH]c(=O)[nH]c(=S)c1C(=O)NCc1ccc(Cl)cc1 [CBK115489] | 95.9459
43 | CC(=O)N(C)c1nc(-c2cccc(N(C)C)c2)ccc1C(=O)NCc1cccnc1 [CBK076639] | 190.396
44 | COCCn1ccnc1C1CCN(C(=O)C(O)c2cccc(Cl)c2)CC1 (centres unmarked) [CBK306901] | 157.829
45 | CC(=O)N1CCC(c2nc(Cc3cccs3)no2)C1 (centres unmarked) [CBK282998] | 99.3842
46 | Cc1cc(C(=O)Nc2ccc([C@@H](O)[C@H]3COCC(=O)N3Cc3ccccc3)cc2)n(C)n1 [CBK289669] | 133.327
47 | O=C(CCN1C(=O)c2cccc3cccc(c23)C1=O)Oc1ccc2c(c1)OCO2 [CBK266237] | 115.696
48 | Cc1cccc(N2CCN(CC(=O)Nc3cc(Cl)ccc3C#N)CC2)c1 [CBK306055] | 86.0847
49 | Cc1ccc(SCCNS(=O)(=O)c2ccc3ccccc3c2)cc1 [CBK267504] | 130.611
50 | Cc1cc2c(=O)n(Cc3ccco3)c(SCc3cc(O)[nH]n3)nc2s1 [CBK268291] | 157.213
